The results in this text go back to patent publication US20100119609A1, “METHODS, COMPOSITIONS, AND FORMULATIONS FOR THE TREATMENT OF THYROID EYE DISEASE” (priority 2006, published 2010).

Several values for one entry are separate records, joined by “and”; a condition that tells them apart may be missing. Equal values may be shown once.

In one experiment the test system is epididymal fat pad. Briefly: Epididymal fat pad mass in rats after local injection (in vivo lipolysis assay). Set-up: species or system rat.
Experiment [1] has as its system cultured human adipocytes. As to the kind of experiment: In vitro lipolysis assay (glycerol release) in cultured adipocytes. It counts as cell-based. The conditions noted are these: three hour incubation. As for the experimental part: In the in vitro lipolysis assay, glycerol was detected in cell culture media via a spectrophotometric measurement after chemical oxidation with hydrogen peroxide. Glycerol was measured over a three hour time period. Levels of lipolysis in cultured human adipocytes were tested after exposure to a beta agonist alone, a glucocorticosteroid alone, or the combination of the two for one or more preincubation periods as described in more detail below.
Human subcutaneous adipocytes were used in the lipolysis assay. Adipose tissue was harvested from liposuction or lipectomy and pre-adipocytes were isolated as follows. Briefly, fat tissue was minced and incubated at 37° C. in Krebs-Ringer bicarbonate buffer containing 1% bovine serum albumin and 0.1% collagenase in an oxygen-rich shaking chamber (5% CO2; 75 strokes/min) for 1 hour. The suspension was filtered through a 400 tim nylon mesh and centrifuged for 1 mm at 100 g. The pre-adipocytes in the […] were washed twice with and then plated in 96 well plates at a density of cells/well. The pre-adipocytes were cultured in maintenance medium for seven days as they differentiated into adipocytes.
At −21 hours before the lipolysis assay, medium was removed from each well and replaced with 75 μl of Maintenance Medium containing appropriate drug or DMSO (vehicle) concentrations (see Experimental Design section below). Each test drug or control treatment was applied to 8 wells/group (12 treatment groups per 96-well plate). At −3 hours prior to the lipolysis assay, each well was washed two times with Wash Buffer (200 μl/wash), filled with test or control solutions made up in Assay Buffer (75 μl/well), and then incubated for three hours, i.e., until measurement of glycerol content in the Assay Buffer. For some groups, a drug was only added for the three hour incubation period (see Experimental and Control Groups Below).
The glycerol content of the Assay Buffer from each well following the incubation was used as an index for lipolysis, where an increase in glycerol indicated lipolysis. Glycerol levels were assayed colorimetrically via a commercial glycerol assay kit (Randox Laboratory, United Kingdom) and quantified by comparison to a glycerol serial dilution standard curve (3 μM-200 μM). Glycerol concentrations for each well were normalized to cell density.
In each of the following control or experimental groups n=8 corresponding to the glycerol measurements for 8 wells from a 96-well cell culture plate.

For `COc1ccc(C[C@@H](C)NC[C@H](O)c2ccc(O)c(NC=O)c2)cc1` (racemic) [Formoterol, N-[2-hydroxy-5-[1-hydroxy-2-[1-(4-methoxyphenyl)propan-2-ylamino]ethyl]-phenyl]methanamide], the “Fat Pad Weight Δ (drug-vehicle), individual animal” value in the experiment with epididymal fat pad (male Sprague Dawley rats, three daily injections, Formoterol 1.39 μg, Budesonide 4 μg, contralateral pad vehicle (2% PEG), listed as Formoterol alone) was -0.036 g and -0.138 g and 0.118 g and 0.166 g. Besides, the “treatment effect on epididymal fat pad mass” value with epididymal fat pad (three day treatment period) was “no trend toward a treatment effect”. Further, the “effect on lipolysis in cultured adipocytes (words)” value was “dose-dependent induction of lipolysis” in experiment [1] and “effectively induce lipolysis” in experiment [1] (listed as formoterol). For the same compound, the “lipolysis compared with isoproterenol (positive control)” value in experiment [1] (concentrations of 10^−6 M and above, isoproterenol 10^−6 M) is “greater than that observed for isoproterenol”. For the same compound, the “increase in lipolysis relative to negative control” value in experiment [1] (glycerol in Assay Buffer, isoproterenol 10^−6 M) is listed as “greater than six fold”.
